Reference: paper doi:10.1101/2024.12.19.629515

Sequences of proteins named here, by UniProt entry; tags and fusion partners are left off. A change or cut given only in a name is not applied to a line headed by its entry.
UniProt O22476: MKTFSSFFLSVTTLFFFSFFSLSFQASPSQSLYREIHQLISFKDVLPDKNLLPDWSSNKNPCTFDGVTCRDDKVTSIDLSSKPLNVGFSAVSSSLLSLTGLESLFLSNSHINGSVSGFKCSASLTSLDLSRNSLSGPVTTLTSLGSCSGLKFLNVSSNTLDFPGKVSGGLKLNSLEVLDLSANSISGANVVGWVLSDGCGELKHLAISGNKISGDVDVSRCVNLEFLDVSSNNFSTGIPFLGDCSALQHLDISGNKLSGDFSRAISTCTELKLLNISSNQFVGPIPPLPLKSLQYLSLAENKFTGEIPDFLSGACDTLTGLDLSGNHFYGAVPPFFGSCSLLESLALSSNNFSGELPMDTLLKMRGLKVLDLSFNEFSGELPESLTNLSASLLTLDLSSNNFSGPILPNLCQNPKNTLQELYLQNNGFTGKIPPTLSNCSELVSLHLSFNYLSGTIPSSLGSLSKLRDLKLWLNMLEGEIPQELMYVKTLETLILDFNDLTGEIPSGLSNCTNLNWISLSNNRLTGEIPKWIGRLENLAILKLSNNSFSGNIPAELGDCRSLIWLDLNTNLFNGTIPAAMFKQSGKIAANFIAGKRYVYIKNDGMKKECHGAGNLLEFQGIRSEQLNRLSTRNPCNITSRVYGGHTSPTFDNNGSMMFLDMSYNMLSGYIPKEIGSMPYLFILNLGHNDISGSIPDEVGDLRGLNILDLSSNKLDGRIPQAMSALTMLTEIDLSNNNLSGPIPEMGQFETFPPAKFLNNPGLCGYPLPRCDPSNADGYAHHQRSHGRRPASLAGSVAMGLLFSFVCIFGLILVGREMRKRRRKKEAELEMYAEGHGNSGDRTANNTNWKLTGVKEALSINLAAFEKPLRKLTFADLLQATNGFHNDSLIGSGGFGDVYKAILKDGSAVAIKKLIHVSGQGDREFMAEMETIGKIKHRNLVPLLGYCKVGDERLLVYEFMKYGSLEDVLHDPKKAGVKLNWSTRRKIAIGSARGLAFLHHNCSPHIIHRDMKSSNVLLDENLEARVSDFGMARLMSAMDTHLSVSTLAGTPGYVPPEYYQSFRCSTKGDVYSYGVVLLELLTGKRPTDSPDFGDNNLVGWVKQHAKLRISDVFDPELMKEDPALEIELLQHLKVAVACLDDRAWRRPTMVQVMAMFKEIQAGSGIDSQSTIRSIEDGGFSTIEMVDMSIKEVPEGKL
UniProt Q96299: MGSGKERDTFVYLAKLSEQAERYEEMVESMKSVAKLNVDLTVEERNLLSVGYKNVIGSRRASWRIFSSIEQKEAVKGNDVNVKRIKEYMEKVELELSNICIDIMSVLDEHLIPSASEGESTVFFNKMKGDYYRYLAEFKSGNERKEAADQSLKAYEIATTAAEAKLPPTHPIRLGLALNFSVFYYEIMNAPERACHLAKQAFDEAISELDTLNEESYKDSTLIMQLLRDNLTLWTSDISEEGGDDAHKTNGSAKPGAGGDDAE

B1: HIS-GRF8, P48348 1-248 (protein)
chain: MATTLSRDQYVYMAKLAEQAERYEEMVQFMEQLVSGATPAGELTVEERNLLSVAYKNVIGSLRAAWRIVSSIEQKEESRKNEEHVSLVKDYRSKVETELSSICSGILRLLDSHLIPSATASESKVFYLKMKGDYHRYLAEFKSGDERKTAAEDTMIAYKAAQDVAVADLAPTHPIRLGLALNFSVFYYEILNSSEKACSMAKQAFEEAIAELDTLGEESYKDSTLIMQLLRDNLTLWTSDMQEQMDEA
B2: GRF6-nYFP (protein, UniProt P48349 1-248)
chain: MAATLGRDQYVYMAKLAEQAERYEEMVQFMEQLVTGATPAEELTVEERNLLSVAYKNVIGSLRAAWRIVSSIEQKEESRKNDEHVSLVKDYRSKVESELSSVCSGILKLLDSHLIPSAGASESKVFYLKMKGDYHRYMAEFKSGDERKTAAEDTMLAYKAAQDIAAADMAPTHPIRLGLALNFSVFYYEILNSSDKACNMAKQAFEEAIAELDTLGEESYKDSTLIMQLLRDNLTLWTSDMQEQMDEA
B3: HIS-GRF4 (protein, UniProt P46077 1-267)
chain: MAAPPASSSAREEFVYLAKLAEQAERYEEMVEFMEKVAEAVDKDELTVEERNLLSVAYKNVIGARRASWRIISSIEQKEESRGNDDHVTTIRDYRSKIESELSKICDGILKLLDTRLVPASANGDSKVFYLKMKGDYHRYLAEFKTGQERKDAAEHTLTAYKAAQDIANAELAPTHPIRLGLALNFSVFYYEILNSPDRACNLAKQAFDEAIAELDTLGEESYKDSTLIMQLLRDNLTLWTSDMQDESPEEIKEAAAPKPAEEQKEI
B4: HIS-GRF3 (protein, UniProt P42644 1-255)
chain: MSTREENVYMAKLAEQAERYEEMVEFMEKVAKTVDVEELSVEERNLLSVAYKNVIGARRASWRIISSIEQKEESKGNEDHVAIIKDYRGKIESELSKICDGILNVLEAHLIPSASPAESKVFYLKMKGDYHRYLAEFKAGAERKEAAESTLVAYKSASDIATAELAPTHPIRLGLALNFSVFYYEILNSPDRACSLAKQAFDDAIAELDTLGEESYKDSTLIMQLLRDNLTLWTSDMTDEAGDEIKEASKPDGAE
B5: HIS-GRF6 (protein, UniProt P48349 1-248)
chain: MAATLGRDQYVYMAKLAEQAERYEEMVQFMEQLVTGATPAEELTVEERNLLSVAYKNVIGSLRAAWRIVSSIEQKEESRKNDEHVSLVKDYRSKVESELSSVCSGILKLLDSHLIPSAGASESKVFYLKMKGDYHRYMAEFKSGDERKTAAEDTMLAYKAAQDIAAADMAPTHPIRLGLALNFSVFYYEILNSSDKACNMAKQAFEEAIAELDTLGEESYKDSTLIMQLLRDNLTLWTSDMQEQMDEA
B6: HIS-GRF11 (protein, UniProt Q9S9Z8 1-252)
chain: MENERAKQVYLAKLNEQAERYDEMVEAMKKVAALDVELTIEERNLLSVGYKNVIGARRASWRILSSIEQKEESKGNEQNAKRIKDYRTKVEEELSKICYDILAVIDKHLVPFATSGESTVFYYKMKGDYFRYLAEFKSGADREEAADLSLKAYEAATSSASTELSTTHPIRLGLALNFSVFYYEILNSPERACHLAKRAFDEAIAELDSLNEDSYKDSTLIMQLLRDNLTLWTSDLEEGGEQSKGHNQQDEN
B7: HIS-fused BAK1 cytoplasmic domain (HIS-BAK1-CD) (domain or fragment, UniProt Q94F62 247-615)
chain: AWWRRKKPQDHFFDVPAEEDPEVHLGQLKRFSLRELQVASDNFSNKNILGRGGFGKVYKGRLADGTLVAVKRLKEERTQGGELQFQTEVEMISMAVHRNLLRLRGFCMTPTERLLVYPYMANGSVASCLRERPESQPPLDWPKRQRIALGSARGLAYLHDHCDPKIIHRDVKAANILLDEEFEAVVGDFGLAKLMDYKDTHVTTAVRGTIGHIAPEYLSTGKSSEKTDVFGYGVMLLELITGQRAFDLARLANDDDVMLLDWVKGLLKEKKLEALVDVDLQGNYKDEEVEQLIQVALLCTQSSPMERPKMSEVVRMLEGDGLAERWEEWQKEEMFRQDFNYPTHHPAVSGWIIGDSTSQIENEYPSGPR
B8: HIS-GRF10 (protein, UniProt P48347 1-254)
chain: MENEREKQVYLAKLSEQTERYDEMVEAMKKVAQLDVELTVEERNLVSVGYKNVIGARRASWRILSSIEQKEESKGNDENVKRLKNYRKRVEDELAKVCNDILSVIDKHLIPSSNAVESTVFFYKMKGDYYRYLAEFSSGAERKEAADQSLEAYKAAVAAAENGLAPTHPVRLGLALNFSVFYYEILNSPESACQLAKQAFDDAIAELDSLNEESYKDSTLIMQLLRDNLTLWTSDLNEEGDERTKGADEPQDEN
B9: HIS-GRF1 (protein, UniProt P42643 1-267)
chain: MATPGASSARDEFVYMAKLAEQAERYEEMVEFMEKVAKAVDKDELTVEERNLLSVAYKNVIGARRASWRIISSIEQKEESRGNDDHVSLIRDYRSKIETELSDICDGILKLLDTILVPAAASGDSKVFYLKMKGDYHRYLAEFKSGQERKDAAEHTLTAYKAAQDIANSELAPTHPIRLGLALNFSVFYYEILNSPDRACNLAKQAFDEAIAELDTLGEESYKDSTLIMQLLRDNLTLWTSDMQDDVADDIKEAAPAAAKPADEQQS
B10: HIS-GRF5 (protein, UniProt P42645 1-268)
chain: MSSDSSREENVYLAKLAEQAERYEEMVEFMEKVAKTVETEELTVEERNLLSVAYKNVIGARRASWRIISSIEQKEDSRGNSDHVSIIKDYRGKIETELSKICDGILNLLEAHLIPAASLAESKVFYLKMKGDYHRYLAEFKTGAERKEAAESTLVAYKSAQDIALADLAPTHPIRLGLALNFSVFYYEILNSSDRACSLAKQAFDEAISELDTLGEESYKDSTLIMQLLRDNLTLWTSDLNDEAGDDIKEAPKEVQKVDEQAQPPPSQ
B11: HIS-GRF2 (protein, UniProt Q01525 1-259)
chain: MASGREEFVYMAKLAEQAERYEEMVEFMEKVSAAVDGDELTVEERNLLSVAYKNVIGARRASWRIISSIEQKEESRGNDDHVTAIREYRSKIETELSGICDGILKLLDSRLIPAAASGDSKVFYLKMKGDYHRYLAEFKTGQERKDAAEHTLAAYKSAQDIANAELAPTHPIRLGLALNFSVFYYEILNSPDRACNLAKQAFDEAIAELDTLGEESYKDSTLIMQLLRDNLTLWTSDMQDDAADEIKEAAAPKPTEEQQ

Each molecule was assayed against GST-tagged BRI1-cytoplasmic domain (GST-BRI1-CD) (Arabidopsis thaliana), O22476 (assay: pull-down). Settings: remark: other sources report otherwise.
B1 was tested, and the binding was “binds”.

The molecules below were run against BRI1^ΔJM-cYFP (Arabidopsis thaliana) (UniProt O22476) (assay: split reporter). Settings: not given.
B2 was tested, and the binding was “no binding”.

Each molecule was assayed against GST-tagged BRI1-cytoplasmic domain (GST-BRI1-CD) (Arabidopsis thaliana) (UniProt O22476) (assay: pull-down). Settings: not given.
For HIS-GRF9 (from UniProt Q96299 1-263), the binding was “binds”. With B3 the binding was “binds”. In the case of B4, the binding is reported as “binds”. For B5, the binding was “binds”. For B6, the binding was “binds”. B7 was tested, and the binding was “binds”. In the case of B8, the binding is reported as “binds”. B9 was tested, and the binding was “binds weakly”. With B10 the binding was “binds”. In the case of B11, the binding is reported as “binds”.

Results are given in words; binding and its absence hold for the method and conditions named. For part of these data: Binding calls can cover weak binding; strength is not graded here. Sequences can lack the tags named with a protein. For part of these data: In cells and extracts the contact can be indirect.
